These are yes or no findings as the source states them, for the method shown. In cells and extracts the contact can be indirect. Some results given as binding are weak or reduced against the parent protein; the word gives no strength. Tags and fused reporters may be left off the sequences shown.

By UniProt entry, the sequences of proteins in these tests, tags left out. Where a name states a change or a piece, a line headed by the entry shows the natural chain unless it says otherwise.
UniProt Q61169: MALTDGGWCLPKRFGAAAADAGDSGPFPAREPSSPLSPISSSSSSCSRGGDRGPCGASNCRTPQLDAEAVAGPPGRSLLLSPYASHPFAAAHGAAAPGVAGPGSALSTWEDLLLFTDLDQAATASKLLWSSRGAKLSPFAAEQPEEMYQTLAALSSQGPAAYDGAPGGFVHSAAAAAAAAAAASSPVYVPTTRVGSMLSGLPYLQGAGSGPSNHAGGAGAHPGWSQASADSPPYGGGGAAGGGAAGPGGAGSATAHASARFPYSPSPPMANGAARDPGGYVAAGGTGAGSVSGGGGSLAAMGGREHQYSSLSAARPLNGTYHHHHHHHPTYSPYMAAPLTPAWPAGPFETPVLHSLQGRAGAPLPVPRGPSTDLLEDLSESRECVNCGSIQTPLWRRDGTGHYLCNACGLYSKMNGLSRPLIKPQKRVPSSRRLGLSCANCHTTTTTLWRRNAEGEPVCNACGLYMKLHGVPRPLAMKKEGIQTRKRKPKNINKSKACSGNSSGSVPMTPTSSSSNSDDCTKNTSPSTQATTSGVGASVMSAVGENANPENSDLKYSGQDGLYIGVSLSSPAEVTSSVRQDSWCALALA
UniProt Q08369: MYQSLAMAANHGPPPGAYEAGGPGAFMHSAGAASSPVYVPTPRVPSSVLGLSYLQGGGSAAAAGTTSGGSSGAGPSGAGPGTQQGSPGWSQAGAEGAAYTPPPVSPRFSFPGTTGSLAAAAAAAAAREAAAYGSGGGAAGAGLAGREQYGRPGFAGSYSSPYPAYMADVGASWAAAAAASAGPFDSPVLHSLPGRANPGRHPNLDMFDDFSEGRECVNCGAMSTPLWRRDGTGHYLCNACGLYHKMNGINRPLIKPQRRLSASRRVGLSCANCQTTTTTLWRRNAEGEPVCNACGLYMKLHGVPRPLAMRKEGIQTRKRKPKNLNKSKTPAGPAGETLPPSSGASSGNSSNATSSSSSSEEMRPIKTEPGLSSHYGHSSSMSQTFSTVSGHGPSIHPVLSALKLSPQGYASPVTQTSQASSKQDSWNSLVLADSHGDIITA

The target in one assay is T1, GST-CRP2 (rat) (UniProt Q62908).
T1 sequence (looked up): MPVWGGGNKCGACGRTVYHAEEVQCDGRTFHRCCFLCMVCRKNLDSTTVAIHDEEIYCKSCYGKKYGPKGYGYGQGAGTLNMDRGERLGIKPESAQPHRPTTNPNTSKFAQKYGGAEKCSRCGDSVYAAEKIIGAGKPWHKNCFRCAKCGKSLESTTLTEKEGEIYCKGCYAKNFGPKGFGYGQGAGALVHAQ
Briefly: GST-CRP2 pull-down of 35S-labelled in vitro translated protein, autoradiography.

The next assay has as its target T2, GST-SRF (human, UniProt P11831 1-508).
T2 construct: also called GST-SRF fusion protein; not shown: glutathione S-transferase encoded by vector pGEX-2T
T2 sequence (looked up): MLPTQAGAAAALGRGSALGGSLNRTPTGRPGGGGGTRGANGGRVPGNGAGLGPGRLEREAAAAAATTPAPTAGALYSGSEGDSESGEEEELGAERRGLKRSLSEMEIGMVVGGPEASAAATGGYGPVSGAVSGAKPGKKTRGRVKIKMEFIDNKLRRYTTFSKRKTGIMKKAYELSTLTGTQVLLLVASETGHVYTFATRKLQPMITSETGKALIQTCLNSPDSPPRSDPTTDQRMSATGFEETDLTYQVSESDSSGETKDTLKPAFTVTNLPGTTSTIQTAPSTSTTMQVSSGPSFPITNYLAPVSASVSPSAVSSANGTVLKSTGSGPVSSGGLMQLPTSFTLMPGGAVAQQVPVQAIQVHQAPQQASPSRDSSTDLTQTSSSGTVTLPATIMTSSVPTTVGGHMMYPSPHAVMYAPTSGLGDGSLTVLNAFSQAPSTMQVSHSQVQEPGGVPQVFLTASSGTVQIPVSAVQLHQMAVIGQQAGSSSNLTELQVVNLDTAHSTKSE
Briefly: GST-SRF pull-down of 35S-labelled in vitro translated protein, autoradiography.

In assay [1] the target is endogenous GATA6 (αMHC-CRP2 mouse heart nuclear extract) (mouse) (UniProt Q61169). Briefly: co-IP from nuclear extracts of αMHC-CRP2 transgenic mouse hearts, immunoblot.

For G4ZF1+ZF2 (from UniProt Q08369 188-304), the binding entry with GST-CRP2 (rat) is reported as “binds”.
On the same count and under the same terms, the result for “Myc-tag full length mouse GATA4 (1-440) (from UniProt Q08369 1-440)” reads “binds”.

B1: V5-tag full length CRP2 (1-193) (protein, rat, UniProt Q62908 1-193, looked up, not shown: small tags and cut ends)
chain: MPVWGGGNKCGACGRTVYHAEEVQCDGRTFHRCCFLCMVCRKNLDSTTVAIHDEEIYCKSCYGKKYGPKGYGYGQGAGTLNMDRGERLGIKPESAQPHRPTTNPNTSKFAQKYGGAEKCSRCGDSVYAAEKIIGAGKPWHKNCFRCAKCGKSLESTTLTEKEGEIYCKGCYAKNFGPKGFGYGQGAGALVHAQ
B1: in the assay with GST-SRF, the binding result is recorded as “binds”.

B2: FLAG-tagged rat CRP2 (αMHC-CRP2 transgene) (other, UniProt Q62908 1-193, looked up, not shown: small tags and cut ends)
chain: MPVWGGGNKCGACGRTVYHAEEVQCDGRTFHRCCFLCMVCRKNLDSTTVAIHDEEIYCKSCYGKKYGPKGYGYGQGAGTLNMDRGERLGIKPESAQPHRPTTNPNTSKFAQKYGGAEKCSRCGDSVYAAEKIIGAGKPWHKNCFRCAKCGKSLESTTLTEKEGEIYCKGCYAKNFGPKGFGYGQGAGALVHAQ
notes: Expressed in cardiomyocytes of transgenic mice and assayed in nuclear and cytoplasmic heart extracts; also called FLAG-CRP2; FLAG-tagged CRP2
In the case of B2, in assay [1], the binding entry is recorded as “binds”.

The values are drawn from patent US20050037961A1 (BAYLOR COLLEGE OF MEDICINE, published 2005).
